Source: PubChem BioAssay AID652054 (National Center for Advancing Translational Sciences (NCATS), 2013)
Screen size: about 360,000 compounds; about 9,100 (2.5%) were called active. Inconclusive results, whose numbers are uncertain, are shown with a selection of clear calls. No stated cut-off is given here; in the data, active means max response below about -50%; inconclusive means no clear call, values can overlap the other calls; inactive means above that.

By UniProt entry, the sequences of proteins in these tests, tags left out.
UniProt P35462, whole entry, looked up: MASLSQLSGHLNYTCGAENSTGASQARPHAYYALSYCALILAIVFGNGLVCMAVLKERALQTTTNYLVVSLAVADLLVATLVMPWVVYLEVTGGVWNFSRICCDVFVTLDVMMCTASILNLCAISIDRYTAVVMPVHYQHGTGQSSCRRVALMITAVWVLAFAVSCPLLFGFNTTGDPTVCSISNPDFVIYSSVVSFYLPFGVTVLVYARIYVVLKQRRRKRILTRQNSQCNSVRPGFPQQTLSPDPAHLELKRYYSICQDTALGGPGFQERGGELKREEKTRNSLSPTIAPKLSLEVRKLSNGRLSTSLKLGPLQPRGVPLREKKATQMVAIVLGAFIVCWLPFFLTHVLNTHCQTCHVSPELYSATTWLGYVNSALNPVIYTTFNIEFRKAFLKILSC

The compounds below were run against D(3) dopamine receptor (Homo sapiens) (UniProt P35462) (assay: qHTS of D3 Dopamine Receptor Antagonist: qHTS). Settings: D3R cells, DiscoveRx beta-arrestin luminescence, antagonist mode; stronger effect = lower value.
In short: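 Cells plated overnight at 1500 cells/well, then exposed to library compounds with dopamine controls for 90 minutes at 37 degrees C. DiscoveRx reagent added for 30–60 minutes at room temperature; luminescence read, quantitative HTS format.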
On the % scale 0 is the no-effect control and ±100 the full control effect.

SMILES | max response, negative = inhibition
Cc1ccc(-c2nnc3ccc(SC(C)C(=O)O)nn23)cc1 (centres undefined) | inconclusive: -39.6%
O=C(O)C1CCCCC1C(=O)NCCc1cccc(Cl)c1 (centres undefined) | inconclusive: -43%
C/C=C/c1ccc(OCCCCN2CCC(C)CC2)c(OC)c1 | inconclusive: -43.8%
Cc1cc(C)cc(C(=O)NCC(=O)N2CCN(C(c3ccccc3)c3ccccc3)CC2)c1 | inactive: 10.6%
N#CCC1c2ccccc2CCN1C(=O)Nc1ccc(Cl)cc1 (centres undefined) | inconclusive: -30.6%
CCCNC(=O)c1cc(C2CCCCN2C(=O)c2cc(OC)c(C)c(OC)c2)on1 (centres undefined) | inactive: 7.93%
Brc1ccc2c(c1)CNc1c(ncnc1N1CCOCC1)O2 | inactive: 43.7%
Cc1nnc(SCc2cccc(Cl)c2)n(N)c1=O | inconclusive: -35.6%
CCC(=O)Nc1cccc(C(=O)/C=C/c2ccc(F)cc2)c1 | inconclusive: -45.2%
O=[N+]([O-])c1ccc2nc(/C=C/c3ccc(Cl)cc3)[nH]c2c1 | inconclusive: -32.1%
CCOC(=O)CSc1nnc2cc(C)c3ccccc3n12 | inactive: 13.9%
O=C(CN1CCN(Cc2ccccc2)C1=O)NCc1ccc(Cl)cc1 | inconclusive: -42.7%
CN1CCN(c2ccc(CNC(=O)C3(C)Cc4c(-c5ccc(C(N)=O)cc5)ccnc4O3)cc2)CC1 (centres undefined) | inconclusive: -37.6%
CCCN(CCC)CCCNC(=O)CS(=O)Cc1nc(-c2ccc(OC)c(OC)c2)oc1C (centres undefined) | inconclusive: -34.7%
CC(C)=CCC12Oc3cc(O)ccc3C1(O)Oc1cc3c(c(O)c1C2=O)C=CC(C)(C)O3 (centres undefined) | inconclusive: -45.5%
CC(C)(C)OC(=O)C[C@@H]1C/C=C\C[C@@H](CC(=O)NCCO)C(=O)NC[C@@H](c2ccccc2)OC1=O | active: -63.2%
CC(=O)c1cc(C(=O)c2ccccc2)sc1Nc1ccccc1 | inactive: -2.69%
COc1ccc(C2(O)CCN(Cc3nnnn3Cc3ccc(C)cc3)CC2)cc1 | inconclusive: -34.8%
COc1ccccc1-c1cc(C(=O)NCc2cccs2)no1 | inconclusive: -38.5%
N#C/C(=C\c1ccccn1)c1ccccn1 | inconclusive: -30.6%
CC(CCc1ccccc1)NC(=S)NC(=O)c1ccco1 (centres undefined) | inconclusive: -37.1%
CN(CCOCCOc1ccc(Cl)cc1Br)Cc1ccccc1 | active: -63.9%

SMILES | max response, negative = inhibition
COc1cccc(-c2cnc3c(NC(C)=O)cc(-c4cc(F)ccc4OC)cn23)c1 | inactive: -14.2%
O=S(=O)(CC(c1ccccc1)N1CCCCC1)c1ccc(Cl)cc1 (centres undefined) | inactive: -22.3%
Cc1ccccc1C(=O)NCC(=O)c1ccccc1 | inconclusive: -33.6%
N#C/C(=C/c1ccc(-c2cccc([N+](=O)[O-])c2)o1)C(=O)Nc1nc(-c2cccs2)cs1 | inactive: -5.64%
CN(Cc1ccc(OC(F)F)cc1)C(=O)/C=C/c1ccc(S(=O)(=O)N2CCOCC2)cc1 | inactive: 1.95%
CCCn1c(CNC(=O)c2ccccc2)nc2ccccc21 | active: -78.6%
Clc1cccc2c1Sc1ccccc1CC2N1CCNCC1 (centres undefined) | active: -54.9%
O=S(=O)(c1ccc(Br)s1)N1CCN(c2ccccn2)CC1 | inconclusive: -35.5%
CC(=O)c1cccc(NC(=O)CN(c2ccc(C)cc2)S(=O)(=O)c2cccc3nonc23)c1 | inconclusive: -45.4%
CC(C)CC(=O)N1CCN(Cc2cccc(F)c2)CC1 | inconclusive: -30.1%
COc1cccc(CNC(=O)CCC2CCCN(C/C=C/c3ccccc3OC)C2)c1 (centres undefined) | active: -54.6%
C#Cc1cc(N2CCN(C(=O)c3ccoc3)CC2)n2nc(-c3cccc(Cl)c3)cc2n1 | inactive: 44.3%
O=C1/C(=C\c2ccc(O)cc2)CCC1CNc1ccc(Cl)cc1 (centres undefined) | inconclusive: -38.4%
Cc1c(NC(=O)/C(C#N)=C/C2CC=CCC2)c(=O)n(-c2ccccc2)n1C (centres undefined) | inconclusive: -31.8%
CC1(C)CC(NC(=O)COc2cc3oc(=O)c4c(c3cc2Cl)CCC4)CC(C)(C)N1 | inactive: -19%
COc1ccc(-c2nc3c4ccccc4ccn3c2CN2CCCCC2)cc1OC | inactive: -2.96%
CC/C(=N\NC(=S)Nc1ccc(OC)cc1)c1ccc(OC(F)F)cc1 | inconclusive: -42.7%
COC(=O)c1ccc(CN2CCC(CO)(Cc3ccc(OC)cc3)CC2)cc1 | active: -62.3%
O=C1Nc2ccc(Br)cc2C1=Nc1cccnc1 | inconclusive: -34.4%
COC(=O)c1ccsc1NC(=O)CN1CCN(Cc2ccc3c(c2)OCO3)CC1 | inconclusive: -43.6%
Cc1ccc(C(=O)NC2CC3CCCC(C2)N3Cc2ccccc2)cc1 (centres undefined) | active: -79.7%
COc1cc2[nH]c3c(=O)n(CCN4CCCCC4)cnc3c2cc1OC | inconclusive: -42.7%

3 entries from above, arranged by molecular weight, low to high:
SMILES | max response, negative = inhibition
CC(C)=CCC12Oc3cc(O)ccc3C1(O)Oc1cc3c(c(O)c1C2=O)C=CC(C)(C)O3 (centres undefined) | inconclusive: -45.5%
N#C/C(=C/c1ccc(-c2cccc([N+](=O)[O-])c2)o1)C(=O)Nc1nc(-c2cccs2)cs1 | inactive: -5.64%
CC(C)(C)OC(=O)C[C@@H]1C/C=C\C[C@@H](CC(=O)NCCO)C(=O)NC[C@@H](c2ccccc2)OC1=O | active: -63.2%
